Assay results reported in the supplement of paper PMC10849652.
This is one part of the list.

Chains of the proteins cited; added tags and fusions are not shown. Lines headed by an entry give the natural chain unless they say otherwise; changes in a name come on top.
UniProt Q13409, whole entry, looked up: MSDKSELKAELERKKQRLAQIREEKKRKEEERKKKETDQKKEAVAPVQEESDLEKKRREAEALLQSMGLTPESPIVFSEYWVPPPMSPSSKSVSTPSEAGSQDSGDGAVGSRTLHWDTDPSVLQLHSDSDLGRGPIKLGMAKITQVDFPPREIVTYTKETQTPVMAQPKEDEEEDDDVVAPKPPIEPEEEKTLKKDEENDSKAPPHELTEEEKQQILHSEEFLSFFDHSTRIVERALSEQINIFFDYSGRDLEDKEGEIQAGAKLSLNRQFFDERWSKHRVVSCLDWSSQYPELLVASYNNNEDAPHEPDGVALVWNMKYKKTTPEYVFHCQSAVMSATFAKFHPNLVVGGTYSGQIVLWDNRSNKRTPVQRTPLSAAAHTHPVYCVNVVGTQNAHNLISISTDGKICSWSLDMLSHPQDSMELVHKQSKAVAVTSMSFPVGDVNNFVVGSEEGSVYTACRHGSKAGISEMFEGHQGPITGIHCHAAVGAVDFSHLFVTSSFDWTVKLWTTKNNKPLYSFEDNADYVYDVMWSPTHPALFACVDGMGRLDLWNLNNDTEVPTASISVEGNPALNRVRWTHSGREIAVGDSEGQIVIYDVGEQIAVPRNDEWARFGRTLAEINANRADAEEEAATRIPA
UniProt Q14156: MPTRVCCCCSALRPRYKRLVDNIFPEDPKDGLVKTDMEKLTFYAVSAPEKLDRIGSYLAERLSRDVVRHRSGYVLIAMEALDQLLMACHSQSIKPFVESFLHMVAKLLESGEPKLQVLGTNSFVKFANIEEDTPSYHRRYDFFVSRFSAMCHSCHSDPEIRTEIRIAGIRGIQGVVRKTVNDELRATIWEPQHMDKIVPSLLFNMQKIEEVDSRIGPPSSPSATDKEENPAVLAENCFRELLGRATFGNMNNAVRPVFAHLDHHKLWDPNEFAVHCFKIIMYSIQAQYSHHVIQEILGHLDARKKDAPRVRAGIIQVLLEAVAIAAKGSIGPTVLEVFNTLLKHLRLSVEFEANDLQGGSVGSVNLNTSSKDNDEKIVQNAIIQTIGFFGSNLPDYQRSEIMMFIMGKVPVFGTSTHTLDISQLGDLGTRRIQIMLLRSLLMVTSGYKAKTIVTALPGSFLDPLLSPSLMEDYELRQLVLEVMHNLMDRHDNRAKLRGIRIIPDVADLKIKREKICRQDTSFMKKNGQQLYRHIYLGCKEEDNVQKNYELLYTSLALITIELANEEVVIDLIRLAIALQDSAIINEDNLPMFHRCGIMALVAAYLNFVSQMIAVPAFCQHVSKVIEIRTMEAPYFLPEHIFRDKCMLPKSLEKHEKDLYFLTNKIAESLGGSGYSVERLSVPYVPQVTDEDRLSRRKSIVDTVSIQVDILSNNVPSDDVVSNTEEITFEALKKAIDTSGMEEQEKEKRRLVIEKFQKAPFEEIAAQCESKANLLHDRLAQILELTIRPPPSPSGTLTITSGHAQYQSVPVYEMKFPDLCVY
UniProt Q9C005, whole entry, looked up: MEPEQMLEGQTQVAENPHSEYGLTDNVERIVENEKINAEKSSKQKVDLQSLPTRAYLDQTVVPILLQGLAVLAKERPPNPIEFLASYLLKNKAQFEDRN
UniProt Q9H223: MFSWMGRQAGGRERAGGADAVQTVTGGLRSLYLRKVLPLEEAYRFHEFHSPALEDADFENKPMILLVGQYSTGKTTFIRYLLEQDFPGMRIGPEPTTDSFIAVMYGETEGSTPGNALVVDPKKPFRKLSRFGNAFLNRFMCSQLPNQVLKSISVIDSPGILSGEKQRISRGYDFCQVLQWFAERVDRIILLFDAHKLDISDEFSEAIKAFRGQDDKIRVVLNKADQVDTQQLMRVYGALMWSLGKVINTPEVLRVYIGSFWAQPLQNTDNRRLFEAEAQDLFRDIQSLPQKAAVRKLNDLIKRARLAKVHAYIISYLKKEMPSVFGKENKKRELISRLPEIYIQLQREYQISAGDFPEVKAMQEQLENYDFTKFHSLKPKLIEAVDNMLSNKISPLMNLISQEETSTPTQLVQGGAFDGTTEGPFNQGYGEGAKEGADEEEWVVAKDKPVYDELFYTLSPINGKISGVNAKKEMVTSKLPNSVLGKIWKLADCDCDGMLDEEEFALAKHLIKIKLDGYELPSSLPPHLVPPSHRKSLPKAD
UniProt P23919: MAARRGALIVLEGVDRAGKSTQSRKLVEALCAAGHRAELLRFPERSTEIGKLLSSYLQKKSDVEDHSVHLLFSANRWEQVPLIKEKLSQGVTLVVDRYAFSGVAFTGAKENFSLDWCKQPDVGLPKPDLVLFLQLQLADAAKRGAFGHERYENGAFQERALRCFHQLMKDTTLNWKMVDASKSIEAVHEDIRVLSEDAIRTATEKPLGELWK
UniProt O00418: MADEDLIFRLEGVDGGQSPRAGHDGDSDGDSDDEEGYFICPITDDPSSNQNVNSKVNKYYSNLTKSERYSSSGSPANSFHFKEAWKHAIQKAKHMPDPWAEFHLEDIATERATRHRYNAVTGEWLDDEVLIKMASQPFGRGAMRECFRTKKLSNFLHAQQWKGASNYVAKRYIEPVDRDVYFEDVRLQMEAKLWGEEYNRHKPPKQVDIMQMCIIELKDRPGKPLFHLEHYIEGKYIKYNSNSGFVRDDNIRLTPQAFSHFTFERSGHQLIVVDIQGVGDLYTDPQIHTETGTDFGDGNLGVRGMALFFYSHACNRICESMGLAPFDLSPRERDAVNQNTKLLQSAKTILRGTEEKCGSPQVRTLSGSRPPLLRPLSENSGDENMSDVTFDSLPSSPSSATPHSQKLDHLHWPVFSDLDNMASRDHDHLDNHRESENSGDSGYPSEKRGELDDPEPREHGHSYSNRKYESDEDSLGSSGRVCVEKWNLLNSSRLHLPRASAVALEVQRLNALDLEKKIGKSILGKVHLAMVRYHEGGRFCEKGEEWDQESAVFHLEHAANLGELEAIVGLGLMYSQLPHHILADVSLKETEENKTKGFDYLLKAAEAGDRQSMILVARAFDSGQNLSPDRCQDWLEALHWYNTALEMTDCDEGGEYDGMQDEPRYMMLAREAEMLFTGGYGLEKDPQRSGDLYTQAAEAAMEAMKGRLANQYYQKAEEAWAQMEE
UniProt Q8NDI1: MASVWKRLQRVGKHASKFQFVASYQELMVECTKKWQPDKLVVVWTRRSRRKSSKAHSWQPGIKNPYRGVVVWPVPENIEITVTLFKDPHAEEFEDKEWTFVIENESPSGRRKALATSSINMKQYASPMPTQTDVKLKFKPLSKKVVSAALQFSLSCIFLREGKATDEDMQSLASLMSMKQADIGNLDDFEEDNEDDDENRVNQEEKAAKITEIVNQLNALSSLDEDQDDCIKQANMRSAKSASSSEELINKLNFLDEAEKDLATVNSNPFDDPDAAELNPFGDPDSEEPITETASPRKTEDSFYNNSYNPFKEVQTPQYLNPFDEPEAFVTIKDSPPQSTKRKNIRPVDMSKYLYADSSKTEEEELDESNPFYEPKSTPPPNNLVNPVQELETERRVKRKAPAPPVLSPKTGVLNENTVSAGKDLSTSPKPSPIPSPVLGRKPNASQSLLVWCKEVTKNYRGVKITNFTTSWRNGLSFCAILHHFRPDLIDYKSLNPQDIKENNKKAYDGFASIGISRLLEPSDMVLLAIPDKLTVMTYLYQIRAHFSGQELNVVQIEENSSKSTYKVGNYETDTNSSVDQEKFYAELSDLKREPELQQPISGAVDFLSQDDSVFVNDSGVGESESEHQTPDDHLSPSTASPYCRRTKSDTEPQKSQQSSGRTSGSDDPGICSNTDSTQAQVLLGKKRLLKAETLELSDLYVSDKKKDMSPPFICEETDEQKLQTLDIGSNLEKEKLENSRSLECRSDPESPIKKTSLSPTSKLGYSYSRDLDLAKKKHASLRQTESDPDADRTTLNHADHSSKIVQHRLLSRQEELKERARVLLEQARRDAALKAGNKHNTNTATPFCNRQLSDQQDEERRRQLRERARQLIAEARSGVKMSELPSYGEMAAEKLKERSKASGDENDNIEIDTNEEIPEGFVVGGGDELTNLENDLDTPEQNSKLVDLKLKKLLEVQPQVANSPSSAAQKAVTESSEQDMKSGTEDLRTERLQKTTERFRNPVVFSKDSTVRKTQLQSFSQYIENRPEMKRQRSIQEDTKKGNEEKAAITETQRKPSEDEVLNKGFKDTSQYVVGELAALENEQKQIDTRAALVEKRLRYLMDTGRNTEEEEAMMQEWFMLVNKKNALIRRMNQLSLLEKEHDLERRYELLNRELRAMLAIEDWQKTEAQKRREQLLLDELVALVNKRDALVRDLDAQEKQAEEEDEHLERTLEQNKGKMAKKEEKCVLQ
UniProt P51452: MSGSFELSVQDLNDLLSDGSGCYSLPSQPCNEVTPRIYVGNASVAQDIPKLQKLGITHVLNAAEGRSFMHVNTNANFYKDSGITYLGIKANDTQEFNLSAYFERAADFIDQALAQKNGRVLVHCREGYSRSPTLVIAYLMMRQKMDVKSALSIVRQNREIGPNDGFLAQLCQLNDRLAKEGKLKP
UniProt Q9H9B1: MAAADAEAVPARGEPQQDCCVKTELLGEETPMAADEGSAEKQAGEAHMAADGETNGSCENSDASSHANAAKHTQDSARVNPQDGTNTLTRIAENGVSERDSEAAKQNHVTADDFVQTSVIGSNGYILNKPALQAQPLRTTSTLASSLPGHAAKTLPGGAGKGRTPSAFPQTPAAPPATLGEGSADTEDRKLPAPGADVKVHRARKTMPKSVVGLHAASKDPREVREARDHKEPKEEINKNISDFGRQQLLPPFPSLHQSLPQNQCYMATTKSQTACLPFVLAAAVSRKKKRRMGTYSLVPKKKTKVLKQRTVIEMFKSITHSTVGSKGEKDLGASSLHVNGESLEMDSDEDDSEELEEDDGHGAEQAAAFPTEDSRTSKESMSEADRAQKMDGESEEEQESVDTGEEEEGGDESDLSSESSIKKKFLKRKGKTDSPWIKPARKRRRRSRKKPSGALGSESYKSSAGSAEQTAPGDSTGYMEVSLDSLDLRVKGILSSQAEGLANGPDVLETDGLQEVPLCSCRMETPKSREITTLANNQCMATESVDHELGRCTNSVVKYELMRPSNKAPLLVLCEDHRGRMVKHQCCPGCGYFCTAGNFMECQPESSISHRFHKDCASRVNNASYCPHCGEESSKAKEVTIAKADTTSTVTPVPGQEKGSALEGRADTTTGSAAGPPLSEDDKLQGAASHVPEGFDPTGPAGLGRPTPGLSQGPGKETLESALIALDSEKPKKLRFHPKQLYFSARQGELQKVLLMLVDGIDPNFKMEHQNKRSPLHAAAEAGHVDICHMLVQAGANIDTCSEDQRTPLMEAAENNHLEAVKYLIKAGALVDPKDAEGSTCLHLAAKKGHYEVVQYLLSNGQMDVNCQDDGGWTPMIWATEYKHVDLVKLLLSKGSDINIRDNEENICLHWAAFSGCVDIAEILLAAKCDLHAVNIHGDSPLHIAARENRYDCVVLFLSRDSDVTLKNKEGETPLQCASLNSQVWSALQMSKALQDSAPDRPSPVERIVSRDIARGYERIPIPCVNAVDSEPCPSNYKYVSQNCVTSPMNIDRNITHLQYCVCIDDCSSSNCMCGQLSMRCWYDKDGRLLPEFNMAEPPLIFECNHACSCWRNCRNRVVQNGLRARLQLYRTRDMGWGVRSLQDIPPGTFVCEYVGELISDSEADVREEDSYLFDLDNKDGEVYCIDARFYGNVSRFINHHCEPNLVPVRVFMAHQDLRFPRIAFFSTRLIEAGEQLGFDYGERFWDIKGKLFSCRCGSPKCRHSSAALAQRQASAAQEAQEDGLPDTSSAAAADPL
UniProt O60869: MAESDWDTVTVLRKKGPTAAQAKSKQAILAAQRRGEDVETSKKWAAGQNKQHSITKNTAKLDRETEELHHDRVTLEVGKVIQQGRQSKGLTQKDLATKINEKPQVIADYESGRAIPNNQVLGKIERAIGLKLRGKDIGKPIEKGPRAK
UniProt Q16610: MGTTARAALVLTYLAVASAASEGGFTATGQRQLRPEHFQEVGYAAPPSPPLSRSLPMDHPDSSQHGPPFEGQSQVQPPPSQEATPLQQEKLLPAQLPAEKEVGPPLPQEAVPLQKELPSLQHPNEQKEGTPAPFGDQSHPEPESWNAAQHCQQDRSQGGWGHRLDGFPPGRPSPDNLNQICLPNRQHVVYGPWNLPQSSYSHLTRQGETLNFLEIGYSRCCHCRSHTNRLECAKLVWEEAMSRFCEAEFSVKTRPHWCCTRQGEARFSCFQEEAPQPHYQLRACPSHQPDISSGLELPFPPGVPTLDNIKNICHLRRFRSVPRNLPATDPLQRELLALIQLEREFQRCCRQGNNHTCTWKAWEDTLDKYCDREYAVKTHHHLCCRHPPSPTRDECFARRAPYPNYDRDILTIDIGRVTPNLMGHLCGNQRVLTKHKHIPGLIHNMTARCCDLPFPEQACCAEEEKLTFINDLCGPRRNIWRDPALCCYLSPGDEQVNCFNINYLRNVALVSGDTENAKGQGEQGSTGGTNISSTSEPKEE

Compound: COC(=O)N[C@@H](C)CNc1nccc(-c2cn(C(C)C)nc2-c2cc(Cl)cc(NS(C)(=O)=O)c2F)n1 [encorafenib]
Test: log2 fold change, soluble protein after heating vs DMSO (PISA); higher = thermal stabilisation; K562 lysate, 10 uM; active = over 0.2 and 3.5 SD of the protein, either way, in both replicates (recomputed)
In short: (§1)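 K562 pellets were dounce-homogenised in PBS pH 7.4 containing 1 mM MgCl2, and the crude extract, at 1 mg/mL protein, was exposed to 10 μM compound for 30 min. Aliquots were heated for 3 min across 48°C-58°C, pooled, brought to 0.5% NP-40 at 4°C and spun at 21,000xg for 90 min, with the supernatant taken as soluble protein. TMTpro 16plex LC-MS/MS with equalised channel sums quantified that protein. Values are log-two fold changes in thermal stability relative to solvent controls, taken from duplicates.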

| Target | log2 fold change |
| --- | --- |
| DSC2 (UniProt Q02487) | inactive: -0.216 |
| DYNC1I2 isoform 2 (UniProt Q13409) | inactive: 0.011 |
| DTX3L (UniProt Q8TDB6) | inactive: 0.03 |
| EFR3A (UniProt Q14156) | inactive: 0.054 |
| DPY30 (UniProt Q9C005) | inactive: -0.02 |
| EHD4 (UniProt Q9H223) | inactive: -0.021 |

Compound: COC(=O)[C@H](CCSC)NC(=O)C1=C(C=C(C=C1)NC[C@H](CS)N)C2=CC=CC=C2
Test: as above
In short: as §1

| Target | log2 fold change |
| --- | --- |
| DVL3 (UniProt Q92997) | inactive: -0.078 |
| DYNC2H1 isoform 2 (UniProt Q8NCM8) | inactive: -0.032 |
| ECHDC1 (UniProt Q9NTX5) | inactive: 0 |
| EDEM2 (UniProt Q9BV94) | inactive: 0.017 |
| EEF2KMT (UniProt Q96G04) | inactive: -0.012 |
| DTYMK (UniProt P23919) | active: 0.283 |
| EHHADH (UniProt Q08426) | inactive: -0.426 |
| EEF2K (UniProt O00418) | inactive: 0.112 |
| EED, A0A5F9ZI63 | inactive: 0.063 |
| EID1 (UniProt Q9Y6B2) | inactive: 0.072 |
| EEA1 (UniProt Q15075) | inactive: -0.048 |
| EFCAB2 isoform 2 (UniProt Q5VUJ9) | inactive: -0.004 |
| EHBP1 isoform 2 (UniProt Q8NDI1) | inactive: 0.016 |
| EFNB1 (UniProt P98172) | inactive: 0.037 |
| DUSP3 (UniProt P51452) | inactive: -0.097 |
| EHMT1 (UniProt Q9H9B1) | inactive: 0.03 |
| DPY19L4 (UniProt Q7Z388) | inactive: -0.097 |
| EDC4 (UniProt Q6P2E9) | inactive: -0.116 |
| EEF1G isoform 2 (UniProt P26641) | inactive: 0.002 |
| DTD2 (UniProt Q96FN9) | inactive: -0.146 |
| EDF1 (UniProt O60869) | inactive: -0.033 |
| ECM1 isoform 4 (UniProt Q16610) | inactive: -0.037 |
| DYSF isoform 13 (UniProt O75923) | inactive: 0.013 |
| DSC2 (UniProt Q02487) | inactive: 0.188 |
| DYNC1I2 isoform 2 (UniProt Q13409) | inactive: 0.056 |
| DTX3L (UniProt Q8TDB6) | inactive: 0.233 |
| EFR3A (UniProt Q14156) | inactive: 0.035 |
| DPY30 (UniProt Q9C005) | inactive: 0.049 |
| EHD4 (UniProt Q9H223) | inactive: 0.027 |

Compound: COc1cc(Nc2ncc3c(n2)-c2ccc(Cl)cc2C(c2c(F)cccc2OC)=NC3)ccc1C(=O)O [alisertib]
Test: as above
In short: as §1

| Target | log2 fold change |
| --- | --- |
| DVL3 (UniProt Q92997) | inactive: -0.02 |
| DYNC2H1 isoform 2 (UniProt Q8NCM8) | inactive: 0.031 |
| ECHDC1 (UniProt Q9NTX5) | inactive: 0.022 |
| EDEM2 (UniProt Q9BV94) | inactive: 0.07 |
| EEF2KMT (UniProt Q96G04) | inactive: -0.073 |
| DTYMK (UniProt P23919) | inactive: 0.009 |
| DUSP22 isoform 2 (UniProt Q9NRW4) | inactive: 0.18 |
| EHHADH (UniProt Q08426) | inactive: 0.065 |
| EEF2K (UniProt O00418) | inactive: 0.009 |
| DTL (UniProt Q9NZJ0) | inactive: -0.038 |
| EED, A0A5F9ZI63 | inactive: -0.01 |
| EID1 (UniProt Q9Y6B2) | inactive: -0.067 |
| EEA1 (UniProt Q15075) | inactive: -0.018 |
| EFCAB2 isoform 2 (UniProt Q5VUJ9) | inactive: -0.045 |
| EHBP1 isoform 2 (UniProt Q8NDI1) | inactive: 0.012 |
| EFNB1 (UniProt P98172) | inactive: 0.124 |
| DUSP3 (UniProt P51452) | inactive: -0.03 |
| EHMT1 (UniProt Q9H9B1) | inactive: -0.037 |
| DPY19L4 (UniProt Q7Z388) | inactive: 0.072 |
| EDC4 (UniProt Q6P2E9) | inactive: 0.021 |
| EEF1G isoform 2 (UniProt P26641) | inactive: 0.009 |
| EDF1 (UniProt O60869) | inactive: 0.02 |
| ECM1 isoform 4 (UniProt Q16610) | inactive: -0.014 |
| EFR3A (UniProt Q14156) | inactive: 0.061 |
| DPY30 (UniProt Q9C005) | inactive: -0.14 |
| E4F1 (UniProt Q66K89) | inactive: 0.123 |
| EHD4 (UniProt Q9H223) | inactive: 0.041 |

Compound: COc1cc2nc(-c3cc(F)ccc3O)nc(N[C@@H]3CNC[C@H]3C(C)(C)O)c2cc1OC
Test: as above
In short: as §1

| Target | log2 fold change |
| --- | --- |
| DVL3 (UniProt Q92997) | inactive: 0.021 |
| DYNC2H1 isoform 2 (UniProt Q8NCM8) | inactive: 0.027 |
| ECHDC1 (UniProt Q9NTX5) | inactive: -0.015 |
| EDEM2 (UniProt Q9BV94) | inactive: -0.085 |
| DTYMK (UniProt P23919) | inactive: -0.007 |
| DUSP22 isoform 2 (UniProt Q9NRW4) | inactive: -0.11 |
| EHHADH (UniProt Q08426) | inactive: -0.005 |
| EEF2K (UniProt O00418) | inactive: -0.008 |
| EED, A0A5F9ZI63 | inactive: 0.013 |
| EEA1 (UniProt Q15075) | inactive: 0.008 |
| EHBP1 isoform 2 (UniProt Q8NDI1) | inactive: -0.005 |
| EFNB1 (UniProt P98172) | inactive: 0.017 |
| DUSP3 (UniProt P51452) | inactive: -0.01 |
| EHMT1 (UniProt Q9H9B1) | inactive: -0.013 |
| EDC4 (UniProt Q6P2E9) | inactive: 0.021 |
| EEF1G isoform 2 (UniProt P26641) | inactive: -0.014 |
| DTD2 (UniProt Q96FN9) | inactive: 0.218 |
| EDF1 (UniProt O60869) | inactive: 0.03 |
| ECM1 isoform 4 (UniProt Q16610) | inactive: -0.02 |
| DYSF isoform 13 (UniProt O75923) | inactive: 0.127 |
| DYNC1I2 isoform 2 (UniProt Q13409) | inactive: 0.096 |
| EFR3A (UniProt Q14156) | inactive: 0.01 |
| DPY30 (UniProt Q9C005) | inactive: -0.149 |
| E4F1 (UniProt Q66K89) | inactive: 0.019 |
| EHD4 (UniProt Q9H223) | inactive: 0.013 |
